Test results: patent publication US6043357A, “HIV protease inhibitors” (The University of Queensland, priority 1994, dated 2000)
Some entries share one result that the patent states for a list of compounds.

Molecular target: HIV-1 protease (Human immunodeficiency virus type 1 group M subtype B, UniProt P03369)
Assay type: biochemical
Protocol: HIV-1 protease activity was measured at 37° C. using a continuous fluorimetric assay based on the method of Toth et al., (Toth et al., 1990, Int. J. Pept. Res. 36 544-550). The substrate, 2-aminobenzoyl-threonine-isoleucine-norleucine-(p-nitro)-phenylalanine-glutamine-arginine-NH2 (Abz-NF^* -6), was synthesised by solid phase peptide synthesis (Kent et al., 1991, In: Peptides 1990: Proceedings of the Twenty-First European Peptide Symposium (Girault, E. and Andrew, D. eds.) pp 172-173, ESCOM, Leiden). Enzyme activity was measured as the increase in fluorescence intensity upon substrate hydrolysis. The change in fluorescence intensity was monitored with a Perkin Elmer LS50B luminescence spectrometer fitted with a thermostatted micro cuvette holder. Measurements were carried out using an excitation wavelength of 320 nm (bandwith 5 nm) and an emission wavelength of […] (bandwith 5 nm).
Inhibition assays were routinely carried out at pH 6.5 and μ=0.1 M using a single substrate concentration. The assay mixtures contained 50 μM Abz-NF^* -6 in 100 mM 2-(N-morpholino)ethanesulphonate buffer, containing 10% (v/v) glycerol and 50 μg/ml bovine serum albumin, in a total final volume of 400 μl. Where inhibitors had to be dissolved in dimethyl sulphoxide or other organic solvents, the final concentration of solvent in the control and inhibition assays were kept absolutely constant because of the severe inhibitory effect of some solvents on the enzyme activity (Bergman et al., 1992, 17th Ann. Lorne Conf. on Protein Struct. and Funct. Abstr.). In all assays, the reaction was initiated by the addition of 10 μl of enzyme solution.

Row | SMILES | protease inhibition, stated in words
1 | CC(C)[C@@H]1NC(=O)CCCOc2ccc(cc2)C[C@@H]([C@H](O)CN2CCCC[C@H]2C(=O)NC(C)(C)C)NC1=O [Compound 48] | the larger ring did impart slightly more activity
2 | CC(C)[C@@H]1NC(=O)CCCOc2ccc(cc2)C[C@@H]([C@@H](O)CN2CCCC[C@H]2C(=O)NC(C)(C)C)NC1=O [Compound 49] | the larger ring did impart slightly more activity
3 | CC(C)[C@@H]1NC(=O)CCCCCOc2ccc(cc2)C[C@@H]([C@H](O)CN2CCCC[C@H]2C(=O)NC(C)(C)C)NC1=O [Compound 52] | the larger ring did impart slightly more activity
4 | CC(C)[C@@H]1NC(=O)CCCCCOc2ccc(cc2)C[C@@H]([C@@H](O)CN2CCCC[C@H]2C(=O)NC(C)(C)C)NC1=O [Compound 53] | the larger ring did impart slightly more activity
